One experiment has as its target mTagBFP-Piezo1 (UniProt E2JF22). Briefly: FRET or BRET; 293T cells co-transfected with mTagBFP-Piezo1 and GFP-TLR4; acceptor photobleaching (488 nm), FRET efficiency from BFP to GFP; confocal microscope. For orientation: In BRET a luciferase serves as donor, and the signal depends on an acceptor being close.
Experiment [1] has as its target Piezo1-tdTomato fusion protein (mouse (endogenous locus in BMDMs of Piezo1^P1tdT mice)) (UniProt E2JF22). Briefly: co-IP; BMDMs expressing RFP-tagged Piezo1 treated with or without LPS; immunoprecipitated with anti-RFP or control IgG, immunoblot with anti-TLR4 or anti-RFP.

By UniProt entry, the sequences of proteins in these tests, tags left out. Residues count along the entry.
UniProt E2JF22: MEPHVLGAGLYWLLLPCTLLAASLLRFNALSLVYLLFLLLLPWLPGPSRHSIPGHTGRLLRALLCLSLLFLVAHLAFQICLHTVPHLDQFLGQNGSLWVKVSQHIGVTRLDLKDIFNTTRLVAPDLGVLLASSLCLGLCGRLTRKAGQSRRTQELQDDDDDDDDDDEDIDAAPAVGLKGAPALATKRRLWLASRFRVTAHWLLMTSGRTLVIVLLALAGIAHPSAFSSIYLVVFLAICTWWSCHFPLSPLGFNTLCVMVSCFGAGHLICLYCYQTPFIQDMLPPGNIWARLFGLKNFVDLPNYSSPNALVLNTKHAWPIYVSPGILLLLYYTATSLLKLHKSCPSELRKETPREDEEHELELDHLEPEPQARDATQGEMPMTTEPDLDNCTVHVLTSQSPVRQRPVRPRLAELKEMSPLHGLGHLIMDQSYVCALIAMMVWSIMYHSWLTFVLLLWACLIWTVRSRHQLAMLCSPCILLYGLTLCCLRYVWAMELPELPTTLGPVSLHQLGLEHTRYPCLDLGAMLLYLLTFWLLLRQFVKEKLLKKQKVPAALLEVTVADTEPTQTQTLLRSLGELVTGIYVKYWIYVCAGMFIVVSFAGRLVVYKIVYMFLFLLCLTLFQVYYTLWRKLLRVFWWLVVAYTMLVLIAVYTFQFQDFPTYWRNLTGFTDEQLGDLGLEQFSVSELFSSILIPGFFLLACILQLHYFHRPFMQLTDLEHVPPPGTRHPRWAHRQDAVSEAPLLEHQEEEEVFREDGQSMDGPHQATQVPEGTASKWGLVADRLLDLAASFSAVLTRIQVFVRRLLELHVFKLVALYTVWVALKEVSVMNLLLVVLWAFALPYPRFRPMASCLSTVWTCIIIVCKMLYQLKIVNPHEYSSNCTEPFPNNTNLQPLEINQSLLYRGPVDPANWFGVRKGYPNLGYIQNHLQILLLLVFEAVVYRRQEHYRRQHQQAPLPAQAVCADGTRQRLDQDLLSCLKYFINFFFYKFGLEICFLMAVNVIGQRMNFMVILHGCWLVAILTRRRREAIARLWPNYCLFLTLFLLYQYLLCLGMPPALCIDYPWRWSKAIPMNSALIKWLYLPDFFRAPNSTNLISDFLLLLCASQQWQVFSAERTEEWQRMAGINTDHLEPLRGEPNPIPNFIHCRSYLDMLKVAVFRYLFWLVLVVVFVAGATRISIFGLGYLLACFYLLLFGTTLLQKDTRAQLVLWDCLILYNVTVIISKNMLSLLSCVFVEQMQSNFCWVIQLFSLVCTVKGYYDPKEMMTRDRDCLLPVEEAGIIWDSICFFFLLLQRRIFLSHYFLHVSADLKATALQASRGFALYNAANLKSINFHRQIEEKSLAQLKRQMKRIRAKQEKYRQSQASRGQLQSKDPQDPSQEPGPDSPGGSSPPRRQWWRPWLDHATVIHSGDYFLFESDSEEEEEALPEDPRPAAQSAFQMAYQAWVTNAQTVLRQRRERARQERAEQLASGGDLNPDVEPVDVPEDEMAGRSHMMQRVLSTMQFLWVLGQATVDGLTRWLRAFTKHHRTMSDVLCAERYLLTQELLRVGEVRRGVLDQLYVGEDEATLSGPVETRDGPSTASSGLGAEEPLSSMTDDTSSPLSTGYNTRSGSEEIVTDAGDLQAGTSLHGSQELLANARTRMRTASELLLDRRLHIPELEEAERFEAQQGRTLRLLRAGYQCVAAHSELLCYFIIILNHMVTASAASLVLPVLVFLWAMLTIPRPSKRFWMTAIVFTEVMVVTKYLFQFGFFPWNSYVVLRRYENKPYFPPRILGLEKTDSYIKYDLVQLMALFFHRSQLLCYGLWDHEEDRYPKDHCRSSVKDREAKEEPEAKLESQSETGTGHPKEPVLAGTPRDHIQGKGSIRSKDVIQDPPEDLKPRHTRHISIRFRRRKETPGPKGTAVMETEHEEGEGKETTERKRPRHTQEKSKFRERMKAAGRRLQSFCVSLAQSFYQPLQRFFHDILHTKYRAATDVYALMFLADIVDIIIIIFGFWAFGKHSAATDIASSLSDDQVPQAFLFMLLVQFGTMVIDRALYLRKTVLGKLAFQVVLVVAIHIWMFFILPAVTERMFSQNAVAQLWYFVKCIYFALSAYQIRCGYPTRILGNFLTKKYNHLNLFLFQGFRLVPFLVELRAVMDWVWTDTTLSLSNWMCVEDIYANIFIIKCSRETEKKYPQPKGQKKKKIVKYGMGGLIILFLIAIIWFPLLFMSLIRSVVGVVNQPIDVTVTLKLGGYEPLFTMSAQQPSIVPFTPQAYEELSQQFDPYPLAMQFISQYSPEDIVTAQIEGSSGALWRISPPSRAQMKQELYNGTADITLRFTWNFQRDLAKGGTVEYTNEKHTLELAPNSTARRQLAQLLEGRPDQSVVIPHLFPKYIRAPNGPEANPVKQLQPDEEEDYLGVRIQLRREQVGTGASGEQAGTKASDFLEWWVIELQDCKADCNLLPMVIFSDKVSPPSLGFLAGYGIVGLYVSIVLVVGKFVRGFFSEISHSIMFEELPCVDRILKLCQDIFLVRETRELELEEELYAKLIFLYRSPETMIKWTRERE
UniProt Q9QUK6, residues 26-835: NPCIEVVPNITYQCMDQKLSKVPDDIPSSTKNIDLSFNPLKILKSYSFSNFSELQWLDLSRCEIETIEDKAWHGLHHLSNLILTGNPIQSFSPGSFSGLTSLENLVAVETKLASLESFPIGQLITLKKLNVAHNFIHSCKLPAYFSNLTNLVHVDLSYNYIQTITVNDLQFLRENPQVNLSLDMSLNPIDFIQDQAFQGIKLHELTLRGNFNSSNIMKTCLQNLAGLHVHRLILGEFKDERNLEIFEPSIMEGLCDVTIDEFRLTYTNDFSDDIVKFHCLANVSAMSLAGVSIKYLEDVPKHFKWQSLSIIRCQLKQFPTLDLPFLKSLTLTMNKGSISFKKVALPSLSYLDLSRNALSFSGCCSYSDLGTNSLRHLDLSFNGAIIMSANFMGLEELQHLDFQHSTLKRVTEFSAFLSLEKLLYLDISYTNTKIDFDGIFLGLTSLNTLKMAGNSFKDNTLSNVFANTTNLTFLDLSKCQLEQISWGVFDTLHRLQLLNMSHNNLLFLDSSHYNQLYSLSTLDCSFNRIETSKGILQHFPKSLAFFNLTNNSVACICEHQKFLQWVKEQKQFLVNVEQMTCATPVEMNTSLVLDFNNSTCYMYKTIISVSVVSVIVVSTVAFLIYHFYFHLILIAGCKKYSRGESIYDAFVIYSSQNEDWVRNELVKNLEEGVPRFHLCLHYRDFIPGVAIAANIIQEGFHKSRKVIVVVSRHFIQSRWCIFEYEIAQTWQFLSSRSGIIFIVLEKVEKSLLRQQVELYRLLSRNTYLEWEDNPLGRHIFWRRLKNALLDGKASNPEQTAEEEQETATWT

Results are given in words; binding and its absence hold for the method and conditions named. Binding seen in cells or lysates may run through a third protein. Some results given as binding are weak or reduced against the parent protein; the word gives no strength.

As to “GFP-TLR4 (from UniProt Q9QUK6 26-835) (receptor)”, in the experiment with mTagBFP-Piezo1, the binding entry is recorded as “binds”.

Turning to “TLR4 (from UniProt Q9QUK6 26-835) (receptor)”, the binding entry in experiment [1] is reported as “binds”.

Values taken from paper PMC8192512.
